No constants are given. Whether binding was seen depends on the method and setting. Binding seen in cells or lysates may run through a third protein. Some entries that bind do so weakly or less than the wild type.
Target: Galectin-3 (human (endogenous in CAPAN-1-derived Sc cells)) (UniProt P17931)
Experiment: co-IP; 300 μg total protein from formaldehyde (PFA) cross-linked Sc cells; IP with 2 μg anti-Galectin-3 antibody (Santa Cruz sc-20157) or isotype-matched rabbit IgG; western blot for hnRNP-L; cells untreated or treated with nocodazole (400 ng/ml, 16 h)

Chains of the proteins cited; added tags and fusions are not shown.
UniProt P17931: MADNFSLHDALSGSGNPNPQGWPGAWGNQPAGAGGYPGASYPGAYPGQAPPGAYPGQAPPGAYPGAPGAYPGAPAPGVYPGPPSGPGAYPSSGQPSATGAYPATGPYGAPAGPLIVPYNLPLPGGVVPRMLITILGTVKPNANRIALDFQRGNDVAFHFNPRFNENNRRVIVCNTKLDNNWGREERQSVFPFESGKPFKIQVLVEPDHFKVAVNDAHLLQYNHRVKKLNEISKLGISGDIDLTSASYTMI

binding: binds
B1: hnRNP-L (protein, UniProt P14866 1-589)
chain: MSRRLLPRAEKRRRRLEQRQQPDEQRRRSGAMVKMAAAGGGGGGGRYYGGGSEGGRAPKRLKTDNAGDQHGGGGGGGGGAGAAGGGGGGENYDDPHKTPASPVVHIRGLIDGVVEADLVEALQEFGPISYVVVMPKKRQALVEFEDVLGACNAVNYAADNQIYIAGHPAFVNYSTSQKISRPGDSDDSRSVNSVLLFTILNPIYSITTDVLYTICNPCGPVQRIVIFRKNGVQAMVEFDSVQSAQRAKASLNGADIYSGCCTLKIEYAKPTRLNVFKNDQDTWDYTNPNLSGQGDPGSNPNKRQRQPPLLGDHPAEYGGPHGGYHSHYHDEGYGPPPPHYEGRRMGPPVGGHRRGPSRYGPQYGHPPPPPPPPEYGPHADSPVLMVYGLDQSKMNCDRVFNVFCLYGNVEKVKFMKSKPGAAMVEMADGYAVDRAITHLNNNFMFGQKLNVCVSKQPAIMPGQSYGLEDGSCSYKDFSESRNNRFSTPEQAAKNRIQHPSNVLHFFNAPLEVTEENFFEICDELGVKRPSSVKVFSGKSERSSSGLLEWESKSDALETLGFLNHYQMKNPNGPYPYTLKLCFSTAQHAS
